Results deposited as PubChem BioAssay AID1508597 (Cure First, 2020).
This is an unselected part of the about 2,100 reagents, under one of the conditions tested. 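Calls flag viability under 80% in either arm, not effects specific to rucaparib; the reference for percent is not stated.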 A reagent listed more than once was tested more than once; the source does not tell the runs apart. Not given: the 100% reference.

Purpose: 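Survival screen with siRNA in ovarian cancer cells derived from patients, with or without rucaparib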 (primary screen)
Cells: human ovarian carcinoma lines grown from tumours: OCI-P5x (papillary serous) and OCI-C5x (clear cell)
Knock-down reagent: siRNA pool against human genes, 1.25 pmol siRNA per well
Duration: 72 h or 96 h, depending on the cell culture
Challenge: rucaparib 20 µM (about IC30) or vehicle, present until read-out
Rucaparib or vehicle: Vehicle
Cell line: OCI-P5x (serous)
Measured: 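Luminescent ATP-based viability assay read 72 or 96 h after transfection, depending on culture, given as normalised percent viability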
Direction: viability, normalised: higher = more viable cells remaining
Hit rule: 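a well counts as a hit if its normalised viability is under 80 percent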
Meaning of the calls: active = viability under 80%; inactive = viability 80% or more

What did the screen give for FANCA (GeneID 2175), technical replicate 1?
viability, normalised (%): 85.5; Outcome: inactive

For FANCA (GeneID 2175), technical replicate 2, what was measured?
viability, normalised (%): 91.8; Outcome: inactive

How did the screen score FANCA (GeneID 2175), technical replicate 3?
viability, normalised (%): 97.4; Outcome: inactive

What is on record for MED26 (GeneID 9441), technical replicate 1?
viability, normalised (%): 48.4; Outcome: active

How did the screen score MED26 (GeneID 9441), technical replicate 2?
viability, normalised (%): 38.3; Outcome: active

What did the screen give for MED26 (GeneID 9441), technical replicate 3?
viability, normalised (%): 58.9; Outcome: active

How did the screen score FYN (GeneID 2534), technical replicate 1?
viability, normalised (%): 81.6; Outcome: inactive

For FYN (GeneID 2534), technical replicate 2, how do the results read?
viability, normalised (%): 71.7; Outcome: active

How did the screen score FYN (GeneID 2534), technical replicate 3?
viability, normalised (%): 87.6; Outcome: inactive

Which result is listed for EPHA10 (GeneID 284656), technical replicate 1?
viability, normalised (%): 88.7; Outcome: inactive

How did the screen score EPHA10 (GeneID 284656), technical replicate 2?
viability, normalised (%): 75.1; Outcome: active

With EPHA10 (GeneID 284656), technical replicate 3, what was measured?
viability, normalised (%): 95.4; Outcome: inactive

With CNOT12 (GeneID 85456), technical replicate 1, what was measured?
viability, normalised (%): 34.2; Outcome: active

For CNOT12 (GeneID 85456), technical replicate 2, what does the deposit list?
viability, normalised (%): 47.4; Outcome: active

How did the screen score CNOT12 (GeneID 85456), technical replicate 3?
viability, normalised (%): 51.3; Outcome: active

In a second layout: entries from further up.
FYN (GeneID 2534), technical replicate 1
- viability, normalised (%): 81.6
- Outcome: inactive

FYN (GeneID 2534), technical replicate 2
- viability, normalised (%): 71.7
- Outcome: active

FYN (GeneID 2534), technical replicate 3
- viability, normalised (%): 87.6
- Outcome: inactive

The list goes on:
For MBD5 (GeneID 55777), technical replicate 1, what was measured?
viability, normalised (%): 72.2; Outcome: active

What did the screen give for MBD5 (GeneID 55777), technical replicate 2?
viability, normalised (%): 64.6; Outcome: active

For MBD5 (GeneID 55777), technical replicate 3, what does the deposit list?
viability, normalised (%): 68.6; Outcome: active

For BLM (GeneID 641), technical replicate 1, how do the results read?
viability, normalised (%): 32.9; Outcome: active

What is on record for BLM (GeneID 641), technical replicate 1?
viability, normalised (%): 131; Outcome: inactive

What did the screen give for BLM (GeneID 641), technical replicate 2?
viability, normalised (%): 127; Outcome: inactive

How did the screen score BLM (GeneID 641), technical replicate 2?
viability, normalised (%): 48.2; Outcome: active

Which result is listed for BLM (GeneID 641), technical replicate 3?
viability, normalised (%): 49.3; Outcome: active

Which result is listed for BLM (GeneID 641), technical replicate 3?
viability, normalised (%): 126; Outcome: inactive
